Measured values from the supplement of paper PMC12819154, “High-throughput peptide-centric local stability assay extends protein–ligand identification to membrane proteins, tissues and bacteria” (Nature Structural & Molecular Biology, 2025).
This is one part of the list. Small differences around the control level are noise.

By UniProt entry, the sequences of proteins in these tests, tags left out. Where a name states a change or a piece, a line headed by the entry shows the natural chain unless it says otherwise.
UniProt P22234: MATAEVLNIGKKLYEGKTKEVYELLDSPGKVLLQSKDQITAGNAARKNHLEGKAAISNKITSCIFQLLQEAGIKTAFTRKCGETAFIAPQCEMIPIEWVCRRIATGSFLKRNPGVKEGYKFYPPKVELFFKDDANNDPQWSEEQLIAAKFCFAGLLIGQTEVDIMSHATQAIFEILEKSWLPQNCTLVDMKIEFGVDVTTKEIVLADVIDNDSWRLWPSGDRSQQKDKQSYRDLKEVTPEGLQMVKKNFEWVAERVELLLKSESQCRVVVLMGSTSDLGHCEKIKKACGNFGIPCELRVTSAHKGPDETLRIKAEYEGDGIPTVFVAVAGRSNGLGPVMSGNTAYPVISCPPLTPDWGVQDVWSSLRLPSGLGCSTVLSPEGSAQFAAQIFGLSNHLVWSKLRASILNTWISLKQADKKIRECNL
UniProt P15923: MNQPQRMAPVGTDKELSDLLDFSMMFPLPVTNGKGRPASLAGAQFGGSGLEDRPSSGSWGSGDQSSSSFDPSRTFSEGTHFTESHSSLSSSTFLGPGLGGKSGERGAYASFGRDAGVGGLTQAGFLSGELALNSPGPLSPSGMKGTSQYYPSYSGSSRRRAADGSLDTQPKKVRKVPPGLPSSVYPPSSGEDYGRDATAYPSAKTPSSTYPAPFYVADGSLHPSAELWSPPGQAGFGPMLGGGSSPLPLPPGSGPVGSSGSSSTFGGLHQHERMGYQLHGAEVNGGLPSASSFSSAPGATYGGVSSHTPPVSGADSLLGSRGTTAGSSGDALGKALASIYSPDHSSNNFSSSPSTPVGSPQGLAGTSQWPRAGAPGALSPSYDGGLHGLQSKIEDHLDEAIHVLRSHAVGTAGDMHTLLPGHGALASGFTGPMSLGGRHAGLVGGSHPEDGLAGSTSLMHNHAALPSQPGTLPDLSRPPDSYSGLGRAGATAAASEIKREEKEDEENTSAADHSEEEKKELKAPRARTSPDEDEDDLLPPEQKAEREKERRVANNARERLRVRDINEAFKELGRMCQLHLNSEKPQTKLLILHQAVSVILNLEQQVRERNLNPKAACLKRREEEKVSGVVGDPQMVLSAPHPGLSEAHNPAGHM
UniProt P14209: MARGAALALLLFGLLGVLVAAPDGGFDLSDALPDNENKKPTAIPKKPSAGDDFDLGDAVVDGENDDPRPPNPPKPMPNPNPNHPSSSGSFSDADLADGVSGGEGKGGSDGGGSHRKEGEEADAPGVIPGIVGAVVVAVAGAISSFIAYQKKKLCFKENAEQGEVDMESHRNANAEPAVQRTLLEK
UniProt P17483: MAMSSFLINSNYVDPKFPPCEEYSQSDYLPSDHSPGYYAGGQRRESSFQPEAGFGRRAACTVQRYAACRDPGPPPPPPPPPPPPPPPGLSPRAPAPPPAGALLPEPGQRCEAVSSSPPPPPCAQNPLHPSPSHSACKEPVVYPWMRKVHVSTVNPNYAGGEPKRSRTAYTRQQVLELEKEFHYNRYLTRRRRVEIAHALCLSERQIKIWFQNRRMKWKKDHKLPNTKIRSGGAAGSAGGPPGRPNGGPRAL
UniProt P20073: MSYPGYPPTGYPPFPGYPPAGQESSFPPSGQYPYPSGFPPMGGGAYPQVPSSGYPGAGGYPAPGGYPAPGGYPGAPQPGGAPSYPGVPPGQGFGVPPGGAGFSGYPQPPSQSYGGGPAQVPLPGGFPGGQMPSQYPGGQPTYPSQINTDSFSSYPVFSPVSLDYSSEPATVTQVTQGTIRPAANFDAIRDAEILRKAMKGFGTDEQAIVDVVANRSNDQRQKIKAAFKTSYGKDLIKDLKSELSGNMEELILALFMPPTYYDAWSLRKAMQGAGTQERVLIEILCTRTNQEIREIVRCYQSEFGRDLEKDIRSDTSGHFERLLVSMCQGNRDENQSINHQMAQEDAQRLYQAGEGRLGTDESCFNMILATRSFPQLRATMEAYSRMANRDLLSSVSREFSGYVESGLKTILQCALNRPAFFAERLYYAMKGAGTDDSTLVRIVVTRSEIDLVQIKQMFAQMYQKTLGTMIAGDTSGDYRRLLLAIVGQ
UniProt P18206: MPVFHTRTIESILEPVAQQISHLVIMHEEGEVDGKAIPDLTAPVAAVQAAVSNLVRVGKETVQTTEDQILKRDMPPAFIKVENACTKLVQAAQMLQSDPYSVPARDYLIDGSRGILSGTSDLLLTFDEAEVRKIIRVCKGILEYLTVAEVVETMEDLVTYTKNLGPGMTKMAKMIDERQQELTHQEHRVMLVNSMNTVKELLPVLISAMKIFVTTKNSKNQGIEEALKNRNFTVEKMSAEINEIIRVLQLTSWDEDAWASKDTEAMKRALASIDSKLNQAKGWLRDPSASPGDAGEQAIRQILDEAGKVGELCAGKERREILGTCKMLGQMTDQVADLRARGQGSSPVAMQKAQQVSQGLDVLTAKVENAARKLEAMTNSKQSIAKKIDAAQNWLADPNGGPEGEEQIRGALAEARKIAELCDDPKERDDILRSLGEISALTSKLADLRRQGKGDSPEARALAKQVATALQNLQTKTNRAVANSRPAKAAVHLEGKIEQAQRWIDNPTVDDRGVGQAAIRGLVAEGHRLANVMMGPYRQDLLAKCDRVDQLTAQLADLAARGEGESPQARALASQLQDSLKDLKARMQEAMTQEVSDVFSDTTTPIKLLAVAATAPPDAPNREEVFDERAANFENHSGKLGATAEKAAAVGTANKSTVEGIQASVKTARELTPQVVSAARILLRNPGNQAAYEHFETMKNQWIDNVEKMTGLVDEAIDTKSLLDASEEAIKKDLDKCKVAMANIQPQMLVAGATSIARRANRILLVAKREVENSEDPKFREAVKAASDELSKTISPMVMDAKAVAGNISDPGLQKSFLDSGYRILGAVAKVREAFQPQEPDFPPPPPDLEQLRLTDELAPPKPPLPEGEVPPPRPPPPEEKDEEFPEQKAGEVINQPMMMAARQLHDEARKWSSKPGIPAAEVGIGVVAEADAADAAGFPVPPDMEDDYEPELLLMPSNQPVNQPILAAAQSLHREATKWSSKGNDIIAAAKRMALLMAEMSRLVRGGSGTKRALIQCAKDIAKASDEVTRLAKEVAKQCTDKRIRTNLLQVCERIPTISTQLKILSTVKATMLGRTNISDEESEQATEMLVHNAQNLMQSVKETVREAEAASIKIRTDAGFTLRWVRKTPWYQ
UniProt P25786: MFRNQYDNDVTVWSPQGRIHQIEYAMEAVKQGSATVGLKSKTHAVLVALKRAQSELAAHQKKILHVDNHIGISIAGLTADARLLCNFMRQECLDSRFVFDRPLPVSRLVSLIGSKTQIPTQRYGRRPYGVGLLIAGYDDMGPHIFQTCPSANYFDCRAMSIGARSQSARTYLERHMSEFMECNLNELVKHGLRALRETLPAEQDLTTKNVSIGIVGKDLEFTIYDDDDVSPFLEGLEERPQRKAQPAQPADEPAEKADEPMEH
UniProt P17707: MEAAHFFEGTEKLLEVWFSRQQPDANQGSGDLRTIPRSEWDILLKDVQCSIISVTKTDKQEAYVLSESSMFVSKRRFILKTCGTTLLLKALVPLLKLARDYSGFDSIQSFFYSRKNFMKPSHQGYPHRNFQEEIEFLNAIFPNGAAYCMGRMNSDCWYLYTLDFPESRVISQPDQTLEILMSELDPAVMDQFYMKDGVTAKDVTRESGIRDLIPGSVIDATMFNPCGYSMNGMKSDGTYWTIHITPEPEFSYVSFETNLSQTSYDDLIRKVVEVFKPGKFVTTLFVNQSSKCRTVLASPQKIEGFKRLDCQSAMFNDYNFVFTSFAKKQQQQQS
UniProt P17036: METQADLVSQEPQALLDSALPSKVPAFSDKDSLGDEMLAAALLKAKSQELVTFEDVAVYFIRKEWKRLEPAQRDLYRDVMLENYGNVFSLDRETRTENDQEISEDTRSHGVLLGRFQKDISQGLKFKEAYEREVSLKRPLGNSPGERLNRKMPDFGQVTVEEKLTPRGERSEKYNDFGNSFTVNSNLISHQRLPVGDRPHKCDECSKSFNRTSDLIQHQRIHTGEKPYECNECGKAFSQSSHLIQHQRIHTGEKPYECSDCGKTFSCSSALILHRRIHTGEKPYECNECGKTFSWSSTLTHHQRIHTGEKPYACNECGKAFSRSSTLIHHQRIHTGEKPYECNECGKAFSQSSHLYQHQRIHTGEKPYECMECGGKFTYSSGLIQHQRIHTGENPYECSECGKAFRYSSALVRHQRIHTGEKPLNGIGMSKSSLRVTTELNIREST
UniProt P22626: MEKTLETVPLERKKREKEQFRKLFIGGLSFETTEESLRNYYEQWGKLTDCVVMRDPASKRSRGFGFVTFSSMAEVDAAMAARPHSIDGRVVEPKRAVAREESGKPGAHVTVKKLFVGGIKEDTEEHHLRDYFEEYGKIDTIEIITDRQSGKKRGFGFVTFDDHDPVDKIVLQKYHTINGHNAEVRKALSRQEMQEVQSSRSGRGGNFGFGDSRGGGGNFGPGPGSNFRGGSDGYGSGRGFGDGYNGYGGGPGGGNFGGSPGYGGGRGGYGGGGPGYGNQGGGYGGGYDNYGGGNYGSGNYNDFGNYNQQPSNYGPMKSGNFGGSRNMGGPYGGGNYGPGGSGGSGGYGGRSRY
UniProt P15735: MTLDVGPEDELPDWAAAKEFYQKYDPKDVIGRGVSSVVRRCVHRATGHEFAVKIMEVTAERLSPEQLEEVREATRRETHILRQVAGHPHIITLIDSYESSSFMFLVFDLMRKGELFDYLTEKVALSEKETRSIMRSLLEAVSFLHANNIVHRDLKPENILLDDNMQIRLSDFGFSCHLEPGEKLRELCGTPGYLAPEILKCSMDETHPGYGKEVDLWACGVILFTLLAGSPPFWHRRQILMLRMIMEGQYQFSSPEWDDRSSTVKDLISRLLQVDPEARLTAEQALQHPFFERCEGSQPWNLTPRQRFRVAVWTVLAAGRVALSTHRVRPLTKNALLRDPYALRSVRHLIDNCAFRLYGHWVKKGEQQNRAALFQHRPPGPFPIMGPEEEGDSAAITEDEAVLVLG
UniProt P17542, whole entry: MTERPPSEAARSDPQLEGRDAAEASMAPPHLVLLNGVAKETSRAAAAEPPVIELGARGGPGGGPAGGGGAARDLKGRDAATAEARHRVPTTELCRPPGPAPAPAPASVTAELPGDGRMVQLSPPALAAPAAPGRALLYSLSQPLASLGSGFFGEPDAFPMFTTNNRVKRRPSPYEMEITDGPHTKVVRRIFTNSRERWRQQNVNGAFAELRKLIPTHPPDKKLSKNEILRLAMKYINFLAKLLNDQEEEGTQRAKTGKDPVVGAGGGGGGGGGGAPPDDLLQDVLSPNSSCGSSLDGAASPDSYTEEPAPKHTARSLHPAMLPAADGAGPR
UniProt P25440, whole entry, looked up: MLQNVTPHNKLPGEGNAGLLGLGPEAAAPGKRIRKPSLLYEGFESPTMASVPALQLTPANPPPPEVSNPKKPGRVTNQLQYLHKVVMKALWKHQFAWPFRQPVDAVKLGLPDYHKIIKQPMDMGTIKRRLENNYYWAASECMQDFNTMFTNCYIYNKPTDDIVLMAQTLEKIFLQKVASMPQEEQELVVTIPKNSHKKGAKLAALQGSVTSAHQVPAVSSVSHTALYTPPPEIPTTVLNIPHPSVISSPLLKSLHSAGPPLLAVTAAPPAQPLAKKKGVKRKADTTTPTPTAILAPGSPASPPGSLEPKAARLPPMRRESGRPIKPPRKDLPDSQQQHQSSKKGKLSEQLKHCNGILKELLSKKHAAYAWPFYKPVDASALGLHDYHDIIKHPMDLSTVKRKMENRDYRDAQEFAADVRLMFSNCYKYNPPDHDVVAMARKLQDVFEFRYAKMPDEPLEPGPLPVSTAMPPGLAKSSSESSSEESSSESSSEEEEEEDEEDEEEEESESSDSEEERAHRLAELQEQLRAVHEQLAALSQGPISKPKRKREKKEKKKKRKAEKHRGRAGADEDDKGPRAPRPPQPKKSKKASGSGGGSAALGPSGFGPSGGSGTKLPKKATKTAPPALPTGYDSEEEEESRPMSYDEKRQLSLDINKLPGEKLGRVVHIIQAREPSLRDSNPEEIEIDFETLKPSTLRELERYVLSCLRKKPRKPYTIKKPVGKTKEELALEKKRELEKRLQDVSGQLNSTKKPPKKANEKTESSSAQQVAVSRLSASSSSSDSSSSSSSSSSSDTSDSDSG
UniProt P19793: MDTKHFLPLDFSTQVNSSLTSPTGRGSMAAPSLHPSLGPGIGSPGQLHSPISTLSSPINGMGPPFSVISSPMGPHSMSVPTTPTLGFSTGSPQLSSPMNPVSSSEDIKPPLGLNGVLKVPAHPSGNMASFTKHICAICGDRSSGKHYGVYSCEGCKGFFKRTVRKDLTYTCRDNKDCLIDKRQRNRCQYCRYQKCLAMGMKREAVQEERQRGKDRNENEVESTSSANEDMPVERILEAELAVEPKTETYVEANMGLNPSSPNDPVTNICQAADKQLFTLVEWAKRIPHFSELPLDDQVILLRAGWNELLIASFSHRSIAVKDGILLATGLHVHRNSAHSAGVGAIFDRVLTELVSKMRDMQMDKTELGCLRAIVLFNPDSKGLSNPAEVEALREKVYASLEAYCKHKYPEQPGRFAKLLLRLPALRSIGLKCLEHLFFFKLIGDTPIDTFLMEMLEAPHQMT

What follows are targets tested with CN[C@@H]1C[C@H]2O[C@@](C)([C@@H]1OC)n1c3ccccc3c3c4c(c5c6ccccc6n2c5c31)C(=O)NC4 [staurosporine] (assay: log2 fold change of tryptic peptide abundance, ligand vs vehicle (limited proteolysis) (log2 ratio); higher = more trypsin-susceptible (destabilized)). Details: ligand concentration: 20 uM; sample: K562 cleared lysate; digestion: 4 min, 22 C (HT-PELSA RT4min, Orbitrap Astral).
“ZKSCAN1 (peptide sequence: AETSEDSASRGETTGR, peptide start residue: 281) (UniProt P17029)” was tested, and the log2 fold change was -0.466.
“PAICS (peptide sequence: KNFEWVAERVELLLK, peptide start residue: 247) (UniProt P22234)” showed a log2 fold change of 0.61.
“RAB5A (peptide sequence: LVLLGESAVGK, peptide start residue: 24) (UniProt P20339)” gave a log2 fold change of 0.151.
Work on “ETFA (peptide sequence: VVPEMTEILK, peptide start residue: 322) (UniProt P13804)” yielded a log2 fold change of 0.223.
“TCF3 (peptide sequence: DINEAFKELGR, peptide start residue: 592) (UniProt P15923)” gave a log2 fold change of -0.288.
In the case of “CD99 (peptide sequence: LCFKENAEQGEVDMESHR, peptide start residue: 153) (UniProt P14209)”, the log2 fold change is reported as -1.12.
Target “XPA (peptide sequence: PYSATAAAATGGMANVK, peptide start residue: 47) (UniProt P23025)” has a log2 fold change of 0.356.
Work on “HOXB4 (peptide sequence: RVEIAHALCLSER, peptide start residue: 192) (UniProt P17483)” yielded a log2 fold change of -0.226.
Target “GATA1 (peptide sequence: GSTSFLETLKTER, peptide start residue: 128) (UniProt P15976)” has a log2 fold change of -0.437.
“PGAM1 (peptide sequence: HYGGLTGLNK, peptide start residue: 91) (UniProt P18669)” showed a log2 fold change of -0.609.
“ANXA7 (peptide sequence: TLGTMIAGDTSGDYRR, peptide start residue: 465) (UniProt P20073)” showed a log2 fold change of 0.404.
“VCL (peptide sequence: ELLPVLISAMK, peptide start residue: 200) (UniProt P18206)” showed a log2 fold change of 0.286.
Target “UniProt P28066 (peptide sequence: RITSPLMEPSSIEK, peptide start residue: 53)” has a log2 fold change of 0.374.
Work on “UniProt P25705 (peptide sequence: DNGKHALIIYDDLSKQAVAYR, peptide start residue: 302)” yielded a log2 fold change of 0.783.
“PSMA1 (peptide sequence: AQSELAAHQKK, peptide start residue: 52) (UniProt P25786)” gave a log2 fold change of 0.273.
For “AMD1 (peptide sequence: DVQCSIISVTK, peptide start residue: 46) (UniProt P17707)”, the log2 fold change was -0.75.
“UniProt P17036 (peptide sequence: TSDLIQHQR, peptide start residue: 212)” was tested, and the log2 fold change was 0.628.
Work on “HNRNPA2B1 (peptide sequence: YHTINGHNAEVRK, peptide start residue: 174) (UniProt P22626)” yielded a log2 fold change of -0.21.
“PHKG2 (peptide sequence: LYGHWVK, peptide start residue: 357) (UniProt P15735)” showed a log2 fold change of 0.305.
With “UniProt P17017 (peptide sequence: ETFTGAKPHECSFCGR, peptide start residue: 95)” the log2 fold change was 0.604.
“TAL1 (peptide sequence: SDPQLEGR, peptide start residue: 12) (UniProt P17542)” was tested, and the log2 fold change was -0.115.
Target “PTMS (peptide sequence: SVEAAAELSAK, peptide start residue: 5) (UniProt P20962)” has a log2 fold change of -0.134.
“BRD2 (peptide sequence: AGADEDDKGPR, peptide start residue: 567) (UniProt P25440)” gave a log2 fold change of 0.649.
In the case of “EIF2S2 (peptide sequence: EKNPDMVAGEK, peptide start residue: 189) (UniProt P20042)”, the log2 fold change is reported as 0.519.
Target “SMPD1 (peptide sequence: VGSVAIKLCNLLK, peptide start residue: 114) (UniProt P17405)” has a log2 fold change of 0.0703.
For “RXRA (peptide sequence: IPHFSELPLDDQVILLR, peptide start residue: 286) (UniProt P19793)”, the log2 fold change was 0.271.
“SDHB (peptide sequence: IKNEVDSTLTFR, peptide start residue: 79) (UniProt P21912)” gave a log2 fold change of -0.593.
“DES (peptide sequence: HLKDEMAR, peptide start residue: 376) (UniProt P17661)” showed a log2 fold change of 0.603.
